# Measurements as given in the supplement of paper PMC8728848.
# The other results are listed elsewhere or left out.
# Tests used:
# Assay in all cases: glycan array binding signal (z-score within array); higher = stronger binding
# Settings in all cases: glycan notation: IUPAC condensed, linker removed
# [1] = target: Neu5Ac(a2-3)Gal(b1-4)[Fuc(a1-3)]GlcNAc(b1-3)GalNAc
# Outline: (§1)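 Arrays were curated from the Consortium for Functional Glycomics database, 3228 in total, and kept only where the protein sequence was available. Binding is expressed as a within-array Z-score. This score was averaged across arrays of the same protein sequence at different concentrations or buffers and across linkers, and negative values can be read as non-binding.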
# [2] = target: Neu5Ac(a2-3)Gal(b1-4)[Fuc(a1-3)]GlcNAc(b1-6)[Gal(b1-3)]GalNAc
# Outline: as §1
# [3] = target: Neu5Ac(a2-3)Gal(b1-4)[Fuc(a1-3)]GlcNAc(b1-6)[Neu5Ac(a2-3)Gal(b1-3)]GalNAc
# Outline: as §1
# [4] = target: Neu5Ac(a2-3)Gal(b1-4)[Fuc(a1-3)]GlcNAc6S
# Outline: as §1
# [5] = target: Neu5Ac(a2-3)Gal6S(b1-4)GlcNAc
# Outline: as §1
# [6] = target: Neu5Ac(a2-3)Gal6S(b1-4)[Fuc(a1-3)]GlcNAc
# Outline: as §1
# [7] = target: Neu5Ac(a2-3)GalNAc
# Outline: as §1
# [8] = target: Neu5Ac(a2-3)GalNAc(b1-4)GlcNAc
# Outline: as §1
# [9] = target: Neu5Ac(a2-3)[GalNAc(b1-4)]Gal(b1-4)Glc
# Outline: as §1
# [10] = target: Neu5Ac(a2-3)[GalNAc(b1-4)]Gal(b1-4)GlcNAc
# Outline: as §1
# [11] = target: Neu5Ac(a2-3)[GalNAc(b1-4)]Gal(b1-4)GlcNAc(b1-3)GalNAc
# Outline: as §1
# [12] = target: Neu5Ac(a2-3)[Neu5Ac(a2-6)]GalNAc
# Outline: as §1
# [13] = target: Neu5Ac(a2-6)Gal
# Outline: as §1
# [14] = target: Neu5Ac(a2-6)Gal(b1-4)Glc
# Outline: as §1
# [15] = target: Neu5Ac(a2-6)Gal(b1-4)GlcNAc
# Outline: as §1
# [16] = target: Neu5Ac(a2-6)Gal(b1-4)GlcNAc(b1-2)Man(a1-3)Man(b1-4)GlcNAc(b1-4)GlcNAc
# Outline: as §1
# [17] = target: Neu5Ac(a2-6)Gal(b1-4)GlcNAc(b1-2)Man(a1-3)[Gal(b1-4)GlcNAc(b1-2)Man(a1-6)]Man(b1-4)GlcNAc(b1-4)GlcNAc
# Outline: as §1
# [18] = target: Neu5Ac(a2-6)Gal(b1-4)GlcNAc(b1-2)Man(a1-3)[GlcNAc(b1-2)Man(a1-6)]Man(b1-4)GlcNAc(b1-4)GlcNAc
# Outline: as §1
# [19] = target: Neu5Ac(a2-6)Gal(b1-4)GlcNAc(b1-2)Man(a1-3)[GlcNAc(b1-2)Man(b1-4)GlcNAc(b1-2)Man(a1-6)]Man(b1-4)GlcNAc(b1-4)GlcNAc
# Outline: as §1
# [20] = target: Neu5Ac(a2-6)Gal(b1-4)GlcNAc(b1-2)Man(a1-3)[Man(a1-6)]Man(b1-4)GlcNAc(b1-4)GlcNAc
# Outline: as §1
# [21] = target: Neu5Ac(a2-6)Gal(b1-4)GlcNAc(b1-2)Man(a1-3)[Neu5Ac(a2-6)Gal(b1-4)GlcNAc(b1-2)Man(a1-6)]Man(b1-4)GlcNAc(b1-4)GlcNAc
# Outline: as §1
# [22] = target: Neu5Ac(a2-6)Gal(b1-4)GlcNAc(b1-2)Man(a1-6)Man(b1-4)GlcNAc(b1-4)GlcNAc
# Outline: as §1
# [23] = target: Neu5Ac(a2-6)Gal(b1-4)GlcNAc(b1-2)Man(a1-6)[Gal(b1-4)GlcNAc(b1-2)Man(a1-3)]Man(b1-4)GlcNAc(b1-4)GlcNAc
# Outline: as §1
# [24] = target: Neu5Ac(a2-6)Gal(b1-4)GlcNAc(b1-2)Man(a1-6)[GlcNAc(b1-2)Man(a1-3)]Man(b1-4)GlcNAc(b1-4)GlcNAc
# Outline: as §1
# [25] = target: Neu5Ac(a2-6)Gal(b1-4)GlcNAc(b1-2)Man(a1-6)[Man(a1-3)]Man(b1-4)GlcNAc(b1-4)GlcNAc
# Outline: as §1
# [26] = target: Neu5Ac(a2-6)Gal(b1-4)GlcNAc(b1-3)Gal(b1-3)GlcNAc
# Outline: as §1
# [27] = target: Neu5Ac(a2-6)Gal(b1-4)GlcNAc(b1-3)Gal(b1-4)GlcNAc
# Outline: as §1
# [28] = target: Neu5Ac(a2-6)Gal(b1-4)GlcNAc(b1-3)Gal(b1-4)GlcNAc(b1-3)Gal(b1-4)GlcNAc
# Outline: as §1
# [29] = target: Neu5Ac(a2-6)Gal(b1-4)GlcNAc(b1-3)Gal(b1-4)[Fuc(a1-3)]GlcNAc(b1-3)Gal(b1-4)[Fuc(a1-3)]GlcNAc
# Outline: as §1
# [30] = target: Neu5Ac(a2-6)Gal(b1-4)GlcNAc(b1-3)GalNAc
# Outline: as §1
# [31] = target: Neu5Ac(a2-6)Gal(b1-4)GlcNAc6S
# Outline: as §1
# [32] = target: Neu5Ac(a2-6)GalNAc
# Outline: as §1
# [33] = target: Neu5Ac(a2-6)GalNAc(b1-4)GlcNAc
# Outline: as §1
# [34] = target: Neu5Ac(a2-6)GlcNAc(b1-4)GlcNAc
# Outline: as §1
# [35] = target: Neu5Ac(a2-6)GlcNAc(b1-4)GlcNAc(b1-4)GlcNAc
# Outline: as §1
# [36] = target: Neu5Ac(a2-8)Neu5Ac
# Outline: as §1
# [37] = target: Neu5Ac(a2-8)Neu5Ac(a2-3)Gal(b1-4)Glc
# Outline: as §1
# [38] = target: Neu5Ac(a2-8)Neu5Ac(a2-3)[GalNAc(b1-4)]Gal(b1-4)Glc
# Outline: as §1
# [39] = target: Neu5Ac(a2-8)Neu5Ac(a2-8)Neu5Ac
# Outline: as §1
# [40] = target: Neu5Ac(a2-8)Neu5Ac(a2-8)Neu5Ac(a2-3)Gal(b1-4)Glc
# Outline: as §1
# [41] = target: Neu5Ac(a2-8)Neu5Ac(a2-8)Neu5Ac(a2-3)[GalNAc(b1-4)]Gal(b1-4)Glc
# Outline: as §1
# [42] = target: Neu5Ac(a2-8)Neu5Ac(a2-8)Neu5Ac(a2-8)Neu5Ac(a2-3)[GalNAc(b1-4)]Gal(b1-4)Glc
# Outline: as §1
# [43] = target: Neu5Ac(b2-6)Gal(b1-4)GlcNAc
# Outline: as §1
# [44] = target: Neu5Ac(b2-6)GalNAc
# Outline: as §1
# [45] = target: Neu5Ac9Ac(a2-3)Gal(b1-3)GlcNAc
# Outline: as §1
# [46] = target: Neu5Ac9Ac(a2-3)Gal(b1-4)GlcNAc
# Outline: as §1
# [47] = target: Neu5Ac9Ac(a2-6)Gal(b1-4)GlcNAc
# Outline: as §1
# [48] = target: Neu5Gc(a2-3)Gal(b1-3)GlcNAc
# Outline: as §1
# [49] = target: Neu5Gc(a2-3)Gal(b1-3)[Fuc(a1-4)]GlcNAc
# Outline: as §1
# [50] = target: Neu5Gc(a2-3)Gal(b1-4)Glc
# Outline: as §1
# [51] = target: Neu5Gc(a2-3)Gal(b1-4)GlcNAc
# Outline: as §1
# [52] = target: Neu5Gc(a2-3)Gal(b1-4)[Fuc(a1-3)]GlcNAc
# Outline: as §1
# [53] = target: Neu5Gc(a2-6)Gal(b1-4)GlcNAc
# Outline: as §1
# [54] = target: Neu5Gc(a2-6)GalNAc
# Outline: as §1
# [55] = target: Neu5Gc(b2-6)Gal(b1-4)GlcNAc
# Outline: as §1
binder,measurement,setting,value
"MIC2 (Toxoplasma gondii), S8F9G8 (protein) MRLQREAVFGLMFACGMWMWPSEVAGGGWSIVDALRKRYDTSRGGDANGVDTSGVEDVIQSESAIGAAEGCTNQLDICFLIDSSGSIGIQNFRLVKQFLHTFLMVLPIGPEEVNNAVVTYSTDVHLQWDLQSPNAVDKQLAAHAVLDMPYKKGSTNTSDGLKACKQILFTGSRPGREHVPKLVIGMTDGESDSDFRTVRAAKEIRELGGIVTVLAVGHYVKHSECRSMCGCSGTSDDDSPCPLYLRADWGQLATAIKPMLKEVCKTLPQDAICSDWSAWSPCSVSCGDGSQIRTRTEVSAPQPGTPTCPDCPAPMGRTCVEQGGLEEIRECSAGVCAVDAGCGVWGEWSAWSASCGNATRKRERTRYNDPPPQGAGRRCENQDPPVLQEQTEEATLAPCITIPPTPPEWAAWSDCTVTCGGGNRHRVRNALPPGLGSQNGESDESLVSKLWPGTDLRQEEACNTSPCPINATCGQFEEWSTCSVSCGGGLKTRSRNPWNEDQQHGGLSCEQQHPGGRTETITCNPQACPVDERPGEWAEWGECSVTCGDGVRERRRGKSLVEAKFGGRTIDQQNEALPEDLKIKNVEYEPCSYPACGASCTYVWSDWNKCVCPMGYQARHAAVKFDYRNKPCDLPTFETKACSCGETNPVPSEGTTPGAPGATGPEQPNQRPLPEGSDENETPTNEEGEQSKKESGSGIAGAIAGGVIGGLILLGAAGGASYHYYLSSSVGSPSAEIEYEADDGATKVVMEEEKETLVPVDDDSDMWME",glycan array binding signal (z-score),[1],2.18
same,glycan array binding signal (z-score),[2],3.24
same,glycan array binding signal (z-score),[3],1.33
same,glycan array binding signal (z-score),[4],-0.949
same,glycan array binding signal (z-score),[5],0.368
same,glycan array binding signal (z-score),[6],0.272
same,glycan array binding signal (z-score),[7],-0.716
same,glycan array binding signal (z-score),[8],-0.701
same,glycan array binding signal (z-score),[9],0.279
same,glycan array binding signal (z-score),[10],0.446
same,glycan array binding signal (z-score),[11],1.93
same,glycan array binding signal (z-score),[12],0.06
same,glycan array binding signal (z-score),[13],-0.435
same,glycan array binding signal (z-score),[14],0.18
same,glycan array binding signal (z-score),[15],-0.177
same,glycan array binding signal (z-score),[16],-0.421
same,glycan array binding signal (z-score),[17],-0.759
same,glycan array binding signal (z-score),[18],-0.512
same,glycan array binding signal (z-score),[19],0.41
same,glycan array binding signal (z-score),[20],0.135
same,glycan array binding signal (z-score),[21],-0.649
same,glycan array binding signal (z-score),[22],-0.954
same,glycan array binding signal (z-score),[23],-0.929
same,glycan array binding signal (z-score),[24],-0.334
same,glycan array binding signal (z-score),[25],1.09
same,glycan array binding signal (z-score),[26],1.03
same,glycan array binding signal (z-score),[27],-0.391
same,glycan array binding signal (z-score),[28],0.566
same,glycan array binding signal (z-score),[29],-0.269
same,glycan array binding signal (z-score),[30],0.606
same,glycan array binding signal (z-score),[31],-0.507
same,glycan array binding signal (z-score),[32],-0.929
same,glycan array binding signal (z-score),[33],-0.706
same,glycan array binding signal (z-score),[34],0.029
same,glycan array binding signal (z-score),[35],0.451
same,glycan array binding signal (z-score),[36],-0.5
same,glycan array binding signal (z-score),[37],-0.713
same,glycan array binding signal (z-score),[38],0.207
same,glycan array binding signal (z-score),[39],-0.293
same,glycan array binding signal (z-score),[40],-0.598
same,glycan array binding signal (z-score),[41],0.198
same,glycan array binding signal (z-score),[42],-0.721
same,glycan array binding signal (z-score),[43],-0.796
same,glycan array binding signal (z-score),[44],-0.725
same,glycan array binding signal (z-score),[45],-0.261
same,glycan array binding signal (z-score),[46],0.306
same,glycan array binding signal (z-score),[47],-0.087
same,glycan array binding signal (z-score),[48],0.1
same,glycan array binding signal (z-score),[49],-0.354
same,glycan array binding signal (z-score),[50],0.763
same,glycan array binding signal (z-score),[51],0.102
same,glycan array binding signal (z-score),[52],0.754
same,glycan array binding signal (z-score),[53],0.237
same,glycan array binding signal (z-score),[54],0.222
same,glycan array binding signal (z-score),[55],-0.855

# Reprinted at random: 4 entries already listed.
binder,measurement,setting,value
"MIC2 (Toxoplasma gondii), S8F9G8 (protein) MRLQREAVFGLMFACGMWMWPSEVAGGGWSIVDALRKRYDTSRGGDANGVDTSGVEDVIQSESAIGAAEGCTNQLDICFLIDSSGSIGIQNFRLVKQFLHTFLMVLPIGPEEVNNAVVTYSTDVHLQWDLQSPNAVDKQLAAHAVLDMPYKKGSTNTSDGLKACKQILFTGSRPGREHVPKLVIGMTDGESDSDFRTVRAAKEIRELGGIVTVLAVGHYVKHSECRSMCGCSGTSDDDSPCPLYLRADWGQLATAIKPMLKEVCKTLPQDAICSDWSAWSPCSVSCGDGSQIRTRTEVSAPQPGTPTCPDCPAPMGRTCVEQGGLEEIRECSAGVCAVDAGCGVWGEWSAWSASCGNATRKRERTRYNDPPPQGAGRRCENQDPPVLQEQTEEATLAPCITIPPTPPEWAAWSDCTVTCGGGNRHRVRNALPPGLGSQNGESDESLVSKLWPGTDLRQEEACNTSPCPINATCGQFEEWSTCSVSCGGGLKTRSRNPWNEDQQHGGLSCEQQHPGGRTETITCNPQACPVDERPGEWAEWGECSVTCGDGVRERRRGKSLVEAKFGGRTIDQQNEALPEDLKIKNVEYEPCSYPACGASCTYVWSDWNKCVCPMGYQARHAAVKFDYRNKPCDLPTFETKACSCGETNPVPSEGTTPGAPGATGPEQPNQRPLPEGSDENETPTNEEGEQSKKESGSGIAGAIAGGVIGGLILLGAAGGASYHYYLSSSVGSPSAEIEYEADDGATKVVMEEEKETLVPVDDDSDMWME",glycan array binding signal (z-score),[40],-0.598
same,glycan array binding signal (z-score),[34],0.029
same,glycan array binding signal (z-score),[28],0.566
same,glycan array binding signal (z-score),[54],0.222
